Source: PubChem BioAssay AID1347076 (National Center for Advancing Translational Sciences (NCATS), 2019)
Out of some 400,000 compounds screened, about 13,000 (3.2%) were called active. Inconclusive means that the source gave no clear call. Such entries were picked first, then a sample of the others. Calls come from the whole dose curve; as a rule, active = well fitted cell-killing curve with a large enough effect; inconclusive = small, poorly fitted or top-dose-only effect, or effect the other way; inactive = flat fitted curve, though single readings scatter. Potencies of inconclusive entries are doubtful fits and often do not repeat.

Assay: qHTS assay for MDR1-selective chemotherapeutics: Primary screen using the drug-selected MDR subline cells KB-V1; note: nearly all actives have a fitted effect of over 60% in size
Conditions: KB-V1 MDR cells viability, CellTiter-Glo, 72 h; activity change, negative = cytotoxicity: at 46.1 µM (top of the series)
Method in brief: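 Cells of the MDR subline KB-V1 are plated, dosed with compound at multiple concentrations, and incubated 72 h at 37 degrees C; CellTiter-Glo is then added and luminescence read after 10 min.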
% is set by controls: 0 for no effect and ±100 for the full control effect; potency is the fitted concentration of half-maximal effect.

Row | SMILES | Potency | activity change, negative = cytotoxicity
1 | COc1ccc(N2C(=O)c3ccccc3NC2c2ccc(OC)c(Cn3nnc4ccccc43)c2)cc1 (configuration not stated) | inconclusive: 2.31 µM [cytotoxic, partial curve, poor fit] | –
2 | O=c1c2ccccc2[nH]c(=S)n1-c1cccc(S(=O)(=O)N2CCCC2)c1 | inconclusive: 29.1 µM [cytotoxic, single point] | –
3 | CC1CCCCC1NC(=O)COc1ncnc2sccc12 (configuration not stated) | inconclusive: 29.1 µM [cytotoxic, single point] | –
4 | CCCCCc1cc(=O)oc2c(C(CCN3CCCC(C)C3)c3cc(OC)c(OC)c(OC)c3)c(OC)cc(OC)c12 (configuration not stated) | inactive | –
5 | O=C(CC1=NCCNC(c2ccccc2)C1)c1ccccc1O (configuration not stated) | inconclusive: 6.51 µM [cytotoxic, full curve] | –
6 | CCOC(=O)Cn1c(COc2ccccc2OC)[n+](C)c2ccccc21 | inactive | –
7 | O=C(CN(C(=O)c1csnn1)c1ccccc1C(F)(F)F)NC1CCCCC1 | inconclusive: 23.1 µM [cytotoxic, partial curve, poor fit] | –
8 | CN1CCN(CC(=O)N2N=C(c3cccs3)CC2c2ccco2)CC1 (configuration not stated) | inactive | –
9 | COC(=O)C1N2C(=O)N(C)[C@H](C(=O)OC)[C@H]2SC1(C)C (some centres not stated) | inactive | –
10 | COc1ccc(CCNC(=O)CSc2ccc3ccccc3c2)cc1OC | active: 23.1 µM | –
11 | Cc1ccc(S(=O)(=O)c2c(N)n(C)c3nc4ccccc4nc23)cc1 | inactive | –
12 | Cc1nnc(NC(=O)C(C)Sc2nnc(CNC(=O)c3ccccc3F)n2C)s1 (configuration not stated) | inactive | –
13 | N#CC1=C(N)Oc2n[nH]c(-c3cccs3)c2C1C1CCCCC1 (configuration not stated) | inactive | –
14 | O=C(NCCc1ccc(F)cc1)c1ccc2nccnc2c1 | – | inconclusive: -2.71%
15 | COc1ccc(NC(=S)NCC(c2ccco2)N2CCCC2)cc1 (configuration not stated) | inconclusive: 29.1 µM [cytotoxic, partial curve, poor fit] | –
16 | CCN(CC)C(=O)CSc1nnc(CNc2ccc(F)cc2)n1-c1ccccc1 | inconclusive: 20.6 µM [cytotoxic, single point] | –
17 | Cc1cccc(OCC(=O)O/N=C(\N)Cc2cccs2)c1 | inactive | –
18 | COc1ccc(C2C(C(C)=O)=C(C)N=c3s/c(=C\c4cc(C)n(C)c4C)c(=O)n32)c(OC)c1 (configuration not stated) | inconclusive: 9.2 µM [cytotoxic, partial curve] | –
19 | Cc1cc(O)c(/C=N/Nc2ccccc2)c(=O)o1 | inconclusive: 20.6 µM [rising, partial curve, poor fit] | –
20 | Cc1cc(/C=C2/SC(=O)N(CC(=O)N3CCOCC3)C2=O)c(C)n1-c1ccccc1F | inconclusive: 29.1 µM [rising, single point] | –
21 | O=C(CN1c2ccccc2Sc2ccccc21)N/N=C/c1ccc(Cl)cc1 | inconclusive: 29.1 µM [cytotoxic, single point] | –
22 | O=c1c2ccc(Cl)cc2nc2n1CC/C2=C\c1cccc(O)c1 | inconclusive: 13 µM [rising, partial curve, poor fit] | –
23 | COc1ccc(Br)cc1S(=O)(=O)NCc1ccccn1 | inactive | –
24 | Cc1ccc(O)c(-c2cc(-c3ccccc3[N+](=O)[O-])[nH]n2)c1 | inactive | –

Reprinted at random: two entries already listed.
Row | SMILES | Potency | activity change, negative = cytotoxicity
20 | Cc1cc(/C=C2/SC(=O)N(CC(=O)N3CCOCC3)C2=O)c(C)n1-c1ccccc1F | inconclusive: 29.1 µM [rising, single point] | –
3 | CC1CCCCC1NC(=O)COc1ncnc2sccc12 (configuration not stated) | inconclusive: 29.1 µM [cytotoxic, single point] | –

More records follow.

Row | SMILES | Potency | activity change, negative = cytotoxicity
25 | COc1cccc(-c2cc(C(=O)N3CCN(c4ccccc4OC)CC3)no2)c1 | inconclusive: 20.6 µM [cytotoxic, partial curve] | –
26 | CCc1ccccc1OCC(=O)NC1CCCC1 | active: 13 µM | –
27 | COc1ccc(OC)c(CC(=O)N2CCc3cc(OC)c(OC)cc3C2)c1 | inconclusive: 23.1 µM [cytotoxic, single point] | –
28 | CC(=O)Nc1ccc(S(=O)(=O)NCC(=O)OCC(=O)c2cc(C)n(-c3ccc4c(c3)OCO4)c2C)cc1 | inconclusive: 25.9 µM [cytotoxic, single point] | –
29 | Cc1ccc(/C=N/Nc2nc(N3CCCCC3)nc(N3CCCCC3)n2)o1 | inactive | –
30 | Cc1cccc(CSc2nc(N)c(C#N)c(-c3cccs3)c2C#N)c1 | active: 11.2 µM | –
31 | O=C(Cn1cncn1)N/N=C/c1ccc(Cl)cc1 | inconclusive: 18.4 µM [rising, single point] | –
32 | COc1ccccc1N1CCN(CCCNC(=O)c2nnc(Cc3c(F)cccc3Cl)o2)CC1 | – | inconclusive: -35% [cytotoxic]
33 | Cc1ccc(C)c(S(=O)(=O)Nc2cc3c4c(c2)CCN4C(=O)CC3)c1 | inconclusive: 14.6 µM [cytotoxic, partial curve] | –
34 | COc1ccc(NS(=O)(=O)c2cccc(NC(=O)COc3ccccc3[N+](=O)[O-])c2)cc1 | inconclusive: 2.91 µM [cytotoxic, partial curve, poor fit] | –
35 | Cc1ccc(C)c(S(=O)(=O)N2CCCOC2CNC(=O)C(=O)NCc2ccccn2)c1 (configuration not stated) | inconclusive: 16.4 µM [cytotoxic, partial curve, poor fit] | –
36 | COc1cccc(CN(C(=O)COc2ccccc2[N+](=O)[O-])C2CCS(=O)(=O)C2)c1 (configuration not stated) | inconclusive: 0.291 µM [cytotoxic, full curve, poor fit] | –
37 | CN(CC(=O)Nc1ccc(Cl)c(C(F)(F)F)c1)C(=O)c1cn2ccccc2n1 | inconclusive: 18.4 µM [cytotoxic, single point] | –
38 | O=C(O)CCc1nc2cc(C(F)(F)F)ccc2n(Cc2ccccc2)c1=O | inactive | –
39 | CC(=O)c1c(Nc2ccccc2)sc(C(=O)c2ccccc2)c1C | active: 3.66 µM | –
40 | COc1ccccc1C(=O)Nc1c(C(=O)N2CCN(c3ccc(F)cc3)CC2)oc2ccccc12 | inconclusive: 29.1 µM [rising, single point] | –
41 | CSc1ccccc1NC(=O)CSCc1ccc(C)cc1 | inconclusive: 29.1 µM [cytotoxic, single point] | –
42 | COc1ccc(C2CC(c3cccs3)=NN2C(=O)CCl)cc1OC (configuration not stated) | inconclusive: 29.1 µM [cytotoxic, single point] | –
43 | O=C(O)Cn1c(SCc2ccccc2)nc2ccccc21 | inactive | –
44 | CCOc1ccc(CCNC(=O)CS(=O)(=O)Cc2nc(-c3cccc(Cl)c3)oc2C)cc1 | inconclusive: 20.6 µM [cytotoxic, single point] | –
45 | COc1ccc(Nc2c3c(nc4ccccc24)CCC3)c(OC)c1 | active: 4.11 µM | –
46 | O=C(CN1CCOCC1)Nc1ccccc1F | inactive | –
47 | OCCC1CN(Cc2cnn(-c3ccc(F)cc3)c2)CCN1Cc1ccsc1 (configuration not stated) | inconclusive: 11.6 µM [cytotoxic, partial curve] | –
48 | CCN1CCN(S(=O)(=O)c2ccc(Cl)c(C(=O)N(C)Cc3ccc(Cl)cc3Cl)c2)CC1 | inconclusive: 3.66 µM [cytotoxic, partial curve] | –

Row | SMILES | Potency | activity change, negative = cytotoxicity
49 | CCCCn1c(SCc2ccccn2)nc2c1c(=O)n(C)c(=O)n2C | inconclusive: 18.4 µM [cytotoxic, single point] | –
50 | CC(=O)c1ccc(Nc2nc(C(N)c3ccccc3Cl)cs2)cc1 (configuration not stated) | inconclusive: 23.1 µM [cytotoxic, partial curve, poor fit] | –
51 | CCOC(=O)N1CCN(Cc2nc3c(c(=O)n(C)c(=O)n3C)n2Cc2cccc(C)c2)CC1 | inactive | –
52 | Cc1cn(C)c(CC(=O)N2CCN(c3cccc(C(F)(F)F)c3)CC2)c1C(=O)O | inactive | –
53 | Cc1cc(C)c2cc(C#N)c(NCCCN)nc2c1 | inconclusive: 18.4 µM [cytotoxic, single point] | –
54 | CC(CC(=O)Nc1ccc2c(c1)c(=O)n(C)n2Cc1ccc(F)cc1)C(F)(F)F (configuration not stated) | inactive | –
55 | CCC(C)NC(=O)C1CC(c2cccc(OC)c2)=NO1 (configuration not stated) | inconclusive: 18.4 µM [cytotoxic, partial curve, poor fit] | –
56 | CC1(C(=O)Nc2ccccc2)Cc2c(-c3ccc4c(c3)OCO4)ccnc2O1 (configuration not stated) | inconclusive: 25.9 µM [cytotoxic, single point] | –
57 | Brc1ccc(OCc2nnnn2-c2ccccc2)cc1 | inconclusive: 29.1 µM [cytotoxic, single point] | –
58 | Cc1ccc(-n2nc3cc(C)c(NC(=O)COc4ccccc4)cc3n2)cc1 | inconclusive: 29.1 µM [rising, single point] | –
59 | CCCC(=O)C1=C(N2CCCC2)CC(C)(C)C(C(=O)OC)C1=O (configuration not stated) | inconclusive: 20.6 µM [cytotoxic, partial curve, poor fit] | –
60 | Cc1sc2nc(CN(C(=O)NC3CCCCC3)C3CCCC3)[nH]c(=O)c2c1C | – | inconclusive: 32.9%
61 | O=C(Cc1ccc(Br)cc1)N1CCc2ccccc2C1 | inconclusive: 29.1 µM [cytotoxic, single point] | –
62 | NC(=O)C(=O)N/N=C/c1c2ccccc2cc2ccccc12 | inactive | –
63 | CCCC(=O)Nc1ccc(C(=O)N/N=C/c2cccnc2)cc1 | – | inconclusive: -3.46%
64 | COc1ccc(SCC(=O)c2cc(C)c(OC(=S)N(C)C)c(C)c2)cc1 | inactive | –
65 | COc1ccccc1N1CCN(S(=O)(=O)CCNC(=O)c2ccco2)CC1 | inactive | –
66 | O=C(NCCO)c1cccc(-c2cnc3cccnn23)c1 | inactive | –
67 | CC(=O)Nc1ccc(N/C(N)=N/c2nc(C)cc(C)n2)cc1 | inactive | –
68 | NC1=NC2(CCCCC2)N=C(Nc2ccc(F)cc2F)N1 | inactive | –
69 | CCOC(=O)C1C(=O)NC(C(=O)OCC)(C(=O)OCC)C1C(C)CC (configuration not stated) | inconclusive: 32.6 µM [cytotoxic, single point] | –
70 | COc1ccc(Nc2nc(-c3ccncc3)nc3ccccc23)cc1 | inconclusive: 29.1 µM [cytotoxic, single point] | –
71 | Cc1ccc(C)c(NC(=O)Cn2c(=O)n(-c3ccccc3C)c(=O)c3c2c2cc(C)ccc2n3C)c1 | inconclusive: 29.1 µM [rising, single point] | –
72 | CCCCn1c(N)c(N(CCOC)C(=O)CCCc2cccs2)c(=O)[nH]c1=O | inactive | –
